The values that follow come from the supplement of paper PMC12819154, “High-throughput peptide-centric local stability assay extends protein–ligand identification to membrane proteins, tissues and bacteria” (Nature Structural & Molecular Biology, 2025).

Protein sequences, listed by entry. Tags and fused reporters are not part of them. Lines headed by an entry give the natural chain unless they say otherwise; changes in a name come on top.
UniProt Q99PL5: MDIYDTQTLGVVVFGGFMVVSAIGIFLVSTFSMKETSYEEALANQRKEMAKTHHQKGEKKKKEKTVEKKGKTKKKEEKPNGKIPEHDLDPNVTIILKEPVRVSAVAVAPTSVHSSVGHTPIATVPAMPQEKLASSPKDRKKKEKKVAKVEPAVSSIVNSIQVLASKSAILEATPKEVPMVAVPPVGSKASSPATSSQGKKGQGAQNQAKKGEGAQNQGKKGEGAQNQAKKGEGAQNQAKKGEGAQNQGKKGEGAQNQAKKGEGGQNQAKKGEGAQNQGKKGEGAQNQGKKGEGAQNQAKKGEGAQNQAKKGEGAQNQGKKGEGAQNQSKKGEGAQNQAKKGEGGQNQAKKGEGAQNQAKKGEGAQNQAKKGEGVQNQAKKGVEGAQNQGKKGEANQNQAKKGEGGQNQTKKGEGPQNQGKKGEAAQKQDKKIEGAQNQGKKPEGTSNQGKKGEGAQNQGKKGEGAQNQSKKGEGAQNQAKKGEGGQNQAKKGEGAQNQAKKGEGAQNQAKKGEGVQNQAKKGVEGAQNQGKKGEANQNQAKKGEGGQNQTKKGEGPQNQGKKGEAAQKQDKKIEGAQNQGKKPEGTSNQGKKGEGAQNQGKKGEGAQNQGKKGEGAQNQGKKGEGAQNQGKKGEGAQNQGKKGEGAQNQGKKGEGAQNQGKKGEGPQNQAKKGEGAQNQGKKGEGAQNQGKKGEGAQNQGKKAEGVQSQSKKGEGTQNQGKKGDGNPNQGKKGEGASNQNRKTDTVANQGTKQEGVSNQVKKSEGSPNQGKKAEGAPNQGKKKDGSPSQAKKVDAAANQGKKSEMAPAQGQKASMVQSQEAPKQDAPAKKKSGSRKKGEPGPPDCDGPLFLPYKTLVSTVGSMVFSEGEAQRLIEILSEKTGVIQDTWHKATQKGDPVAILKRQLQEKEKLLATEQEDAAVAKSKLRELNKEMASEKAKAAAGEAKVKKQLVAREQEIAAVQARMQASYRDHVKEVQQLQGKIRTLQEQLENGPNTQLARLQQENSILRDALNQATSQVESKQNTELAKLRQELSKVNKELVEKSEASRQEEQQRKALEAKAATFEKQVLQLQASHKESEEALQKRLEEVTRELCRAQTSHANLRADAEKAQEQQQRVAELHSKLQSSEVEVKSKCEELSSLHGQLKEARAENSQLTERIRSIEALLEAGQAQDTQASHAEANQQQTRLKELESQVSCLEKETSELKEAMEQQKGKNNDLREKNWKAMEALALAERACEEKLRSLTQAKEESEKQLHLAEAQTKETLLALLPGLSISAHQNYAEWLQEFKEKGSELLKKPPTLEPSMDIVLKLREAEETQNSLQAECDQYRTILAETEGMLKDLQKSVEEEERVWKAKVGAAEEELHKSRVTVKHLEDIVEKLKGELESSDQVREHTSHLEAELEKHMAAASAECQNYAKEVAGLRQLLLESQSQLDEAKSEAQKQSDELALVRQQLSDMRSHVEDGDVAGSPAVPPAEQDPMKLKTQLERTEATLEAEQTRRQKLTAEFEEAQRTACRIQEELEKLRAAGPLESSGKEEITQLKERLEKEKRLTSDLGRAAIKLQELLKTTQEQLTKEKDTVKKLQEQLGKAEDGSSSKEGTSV
UniProt Q99M31: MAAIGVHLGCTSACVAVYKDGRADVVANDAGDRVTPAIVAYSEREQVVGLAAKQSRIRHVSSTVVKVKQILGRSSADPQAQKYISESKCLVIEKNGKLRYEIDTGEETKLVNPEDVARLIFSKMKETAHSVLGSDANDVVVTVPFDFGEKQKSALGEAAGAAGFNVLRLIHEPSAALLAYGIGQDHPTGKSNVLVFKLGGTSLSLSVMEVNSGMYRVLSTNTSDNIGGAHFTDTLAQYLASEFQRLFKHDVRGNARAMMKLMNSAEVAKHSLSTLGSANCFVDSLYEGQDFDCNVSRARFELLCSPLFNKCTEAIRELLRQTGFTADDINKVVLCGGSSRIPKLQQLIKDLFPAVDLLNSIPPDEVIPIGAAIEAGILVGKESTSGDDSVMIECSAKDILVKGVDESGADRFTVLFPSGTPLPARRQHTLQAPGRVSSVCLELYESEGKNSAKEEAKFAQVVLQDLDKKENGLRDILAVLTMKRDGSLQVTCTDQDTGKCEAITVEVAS
UniProt Q99MN1, whole entry: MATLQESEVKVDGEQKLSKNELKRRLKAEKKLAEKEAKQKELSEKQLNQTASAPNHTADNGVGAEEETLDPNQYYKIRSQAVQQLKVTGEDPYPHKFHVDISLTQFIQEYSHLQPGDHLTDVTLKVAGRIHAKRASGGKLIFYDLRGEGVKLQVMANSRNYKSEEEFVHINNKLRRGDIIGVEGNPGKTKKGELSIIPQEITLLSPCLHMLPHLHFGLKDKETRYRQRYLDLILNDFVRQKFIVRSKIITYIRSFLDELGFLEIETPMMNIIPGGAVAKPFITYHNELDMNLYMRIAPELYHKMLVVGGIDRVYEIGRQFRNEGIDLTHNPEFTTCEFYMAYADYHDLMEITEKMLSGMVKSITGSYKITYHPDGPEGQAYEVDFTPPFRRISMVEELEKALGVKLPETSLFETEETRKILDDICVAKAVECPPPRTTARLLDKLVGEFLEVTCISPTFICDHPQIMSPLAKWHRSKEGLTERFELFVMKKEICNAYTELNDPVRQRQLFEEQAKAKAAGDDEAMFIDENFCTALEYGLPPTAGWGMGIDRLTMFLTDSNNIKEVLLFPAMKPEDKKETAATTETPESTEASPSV
UniProt Q9CQM5: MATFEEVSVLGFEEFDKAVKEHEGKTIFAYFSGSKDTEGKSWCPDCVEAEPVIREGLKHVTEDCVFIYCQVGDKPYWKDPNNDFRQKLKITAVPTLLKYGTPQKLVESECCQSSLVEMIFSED
UniProt Q9CQS5: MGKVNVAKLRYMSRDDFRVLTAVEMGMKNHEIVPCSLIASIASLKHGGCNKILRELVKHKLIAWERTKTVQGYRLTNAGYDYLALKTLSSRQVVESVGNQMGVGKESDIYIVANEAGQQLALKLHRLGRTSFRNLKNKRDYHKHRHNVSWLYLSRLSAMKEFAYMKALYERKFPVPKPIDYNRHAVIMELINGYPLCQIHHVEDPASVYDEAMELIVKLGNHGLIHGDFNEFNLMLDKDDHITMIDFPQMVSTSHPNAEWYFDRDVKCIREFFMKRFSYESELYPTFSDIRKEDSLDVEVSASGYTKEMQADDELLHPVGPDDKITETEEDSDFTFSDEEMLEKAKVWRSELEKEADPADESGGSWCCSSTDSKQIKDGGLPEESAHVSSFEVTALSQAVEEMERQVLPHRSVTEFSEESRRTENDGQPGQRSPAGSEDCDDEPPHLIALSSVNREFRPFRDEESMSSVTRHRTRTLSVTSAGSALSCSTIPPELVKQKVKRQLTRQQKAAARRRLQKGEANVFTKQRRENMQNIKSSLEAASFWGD
UniProt Q9CPQ8: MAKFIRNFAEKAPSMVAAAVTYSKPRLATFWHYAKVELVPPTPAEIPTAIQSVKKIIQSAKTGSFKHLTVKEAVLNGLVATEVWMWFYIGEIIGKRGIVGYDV
UniProt Q9CPR1: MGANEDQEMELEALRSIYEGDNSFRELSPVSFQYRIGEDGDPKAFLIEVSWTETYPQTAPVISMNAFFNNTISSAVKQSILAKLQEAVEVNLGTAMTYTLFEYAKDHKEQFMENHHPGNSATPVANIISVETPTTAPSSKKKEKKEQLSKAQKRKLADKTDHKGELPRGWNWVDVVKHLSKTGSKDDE
UniProt Q99P30: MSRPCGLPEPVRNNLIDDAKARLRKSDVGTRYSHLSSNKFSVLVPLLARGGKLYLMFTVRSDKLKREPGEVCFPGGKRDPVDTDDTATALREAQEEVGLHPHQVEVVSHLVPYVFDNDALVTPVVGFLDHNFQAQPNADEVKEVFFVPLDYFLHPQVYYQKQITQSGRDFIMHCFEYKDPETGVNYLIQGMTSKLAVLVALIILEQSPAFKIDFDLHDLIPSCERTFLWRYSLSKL
UniProt Q99LJ6: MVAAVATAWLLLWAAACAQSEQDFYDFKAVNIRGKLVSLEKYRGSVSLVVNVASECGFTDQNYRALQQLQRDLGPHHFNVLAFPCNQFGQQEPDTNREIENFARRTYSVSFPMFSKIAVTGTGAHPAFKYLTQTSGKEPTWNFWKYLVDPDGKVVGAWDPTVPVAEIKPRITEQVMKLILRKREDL
UniProt Q9CPW2: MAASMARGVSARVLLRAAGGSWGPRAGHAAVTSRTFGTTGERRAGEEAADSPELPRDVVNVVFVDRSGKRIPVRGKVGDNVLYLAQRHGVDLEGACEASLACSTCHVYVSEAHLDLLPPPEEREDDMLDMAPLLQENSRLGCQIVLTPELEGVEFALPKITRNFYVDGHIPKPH
UniProt Q9CQ45: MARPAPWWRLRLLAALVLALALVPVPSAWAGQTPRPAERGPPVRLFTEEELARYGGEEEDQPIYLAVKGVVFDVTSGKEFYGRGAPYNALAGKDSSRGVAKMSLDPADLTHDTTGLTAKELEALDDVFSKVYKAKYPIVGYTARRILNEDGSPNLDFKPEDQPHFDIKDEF
UniProt Q99NH2, whole entry: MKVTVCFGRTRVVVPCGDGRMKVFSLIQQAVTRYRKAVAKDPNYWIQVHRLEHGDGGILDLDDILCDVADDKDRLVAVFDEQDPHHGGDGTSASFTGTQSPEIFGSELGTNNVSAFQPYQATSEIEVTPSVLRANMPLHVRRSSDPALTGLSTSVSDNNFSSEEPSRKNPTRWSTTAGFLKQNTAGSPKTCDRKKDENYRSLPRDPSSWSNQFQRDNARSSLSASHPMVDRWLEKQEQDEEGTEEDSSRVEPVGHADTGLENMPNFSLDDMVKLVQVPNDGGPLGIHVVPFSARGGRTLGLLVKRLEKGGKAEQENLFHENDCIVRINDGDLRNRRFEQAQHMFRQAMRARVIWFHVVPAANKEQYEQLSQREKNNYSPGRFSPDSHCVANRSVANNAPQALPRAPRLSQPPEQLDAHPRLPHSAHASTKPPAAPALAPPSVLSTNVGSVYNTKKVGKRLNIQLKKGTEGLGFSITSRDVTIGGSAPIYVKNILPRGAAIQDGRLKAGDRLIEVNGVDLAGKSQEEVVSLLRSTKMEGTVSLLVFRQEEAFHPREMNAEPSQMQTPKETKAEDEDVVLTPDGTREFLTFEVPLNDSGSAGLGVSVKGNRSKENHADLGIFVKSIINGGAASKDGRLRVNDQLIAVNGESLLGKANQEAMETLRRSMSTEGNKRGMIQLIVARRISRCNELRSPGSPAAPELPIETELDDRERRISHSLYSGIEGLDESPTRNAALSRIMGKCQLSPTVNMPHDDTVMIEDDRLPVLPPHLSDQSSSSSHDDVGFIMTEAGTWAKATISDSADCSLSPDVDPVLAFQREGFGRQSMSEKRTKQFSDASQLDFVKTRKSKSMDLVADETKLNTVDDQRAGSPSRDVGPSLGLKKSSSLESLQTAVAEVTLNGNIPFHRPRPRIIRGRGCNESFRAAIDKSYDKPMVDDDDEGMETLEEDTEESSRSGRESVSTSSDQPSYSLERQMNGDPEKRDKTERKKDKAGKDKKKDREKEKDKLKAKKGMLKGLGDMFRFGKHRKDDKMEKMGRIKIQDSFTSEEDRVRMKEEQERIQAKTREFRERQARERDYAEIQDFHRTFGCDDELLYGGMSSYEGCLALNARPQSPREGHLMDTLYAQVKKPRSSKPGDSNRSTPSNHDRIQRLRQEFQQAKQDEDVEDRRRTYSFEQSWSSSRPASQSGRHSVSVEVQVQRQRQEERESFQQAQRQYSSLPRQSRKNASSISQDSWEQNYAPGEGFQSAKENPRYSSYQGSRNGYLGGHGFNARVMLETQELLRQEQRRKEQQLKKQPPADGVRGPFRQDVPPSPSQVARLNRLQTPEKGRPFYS
UniProt Q99LJ7: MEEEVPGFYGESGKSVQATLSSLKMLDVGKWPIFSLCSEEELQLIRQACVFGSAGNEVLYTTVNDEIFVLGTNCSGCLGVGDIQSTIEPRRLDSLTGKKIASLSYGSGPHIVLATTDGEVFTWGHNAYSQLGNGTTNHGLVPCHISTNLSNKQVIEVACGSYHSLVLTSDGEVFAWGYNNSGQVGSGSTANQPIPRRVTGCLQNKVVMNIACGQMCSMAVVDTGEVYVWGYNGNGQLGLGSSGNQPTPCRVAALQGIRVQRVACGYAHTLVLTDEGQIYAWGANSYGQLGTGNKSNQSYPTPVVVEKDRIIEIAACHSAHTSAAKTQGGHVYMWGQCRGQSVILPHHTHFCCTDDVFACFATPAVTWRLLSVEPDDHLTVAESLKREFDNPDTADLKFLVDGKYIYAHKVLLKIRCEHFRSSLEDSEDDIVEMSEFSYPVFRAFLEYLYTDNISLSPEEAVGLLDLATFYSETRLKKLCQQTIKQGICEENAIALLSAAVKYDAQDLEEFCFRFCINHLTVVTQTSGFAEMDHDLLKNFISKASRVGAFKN
UniProt Q9CQ56: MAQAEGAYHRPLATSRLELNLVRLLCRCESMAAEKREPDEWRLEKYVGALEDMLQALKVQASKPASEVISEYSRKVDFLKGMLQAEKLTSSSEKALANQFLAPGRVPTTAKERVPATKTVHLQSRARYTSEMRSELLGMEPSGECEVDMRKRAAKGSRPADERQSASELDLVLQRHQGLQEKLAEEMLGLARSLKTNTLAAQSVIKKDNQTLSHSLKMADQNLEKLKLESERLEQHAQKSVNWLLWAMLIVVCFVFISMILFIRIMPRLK

The other results are listed elsewhere or left out. Most entries show no effect beyond the scatter of the controls.

Compound in this test: CN[C@@H]1C[C@H]2O[C@@](C)([C@@H]1OC)n1c3ccccc3c3c4c(c5c6ccccc6n2c5c31)C(=O)NC4 [staurosporine]
The test can be described thus: log2 fold change of tryptic peptide abundance, ligand vs vehicle (limited proteolysis) (log2 ratio); higher = more trypsin-susceptible (destabilized). As to conditions: ligand concentration: 20 uM; sample: mouse liver crude lysate; replicate design: treated separately.
As for “UniProt Q9CQX8 (peptide sequence: VVQVVKPHAPLIK, peptide start residue: 11)”, the log2 fold change turned out to be 0.0951.
With “UniProt Q99PL5 (peptide sequence: GEAAQKQDK, peptide start residue: 422)”, the log2 fold change was -1.09.
To “UniProt Q99M31 (peptide sequence: LIHEPSAALLAYGIGQDHPTGK, peptide start residue: 169)” belongs 0.126.
Under “UniProt Q99MN1 (peptide sequence: SKIITYIR, peptide start residue: 246)” stands 0.521; under “UniProt Q9CQ86 (peptide sequence: RASNGEPVEK, peptide start residue: 95)”, -1.42.
Under “UniProt Q99M15 (peptide sequence: DIQYFVNQR, peptide start residue: 264)” stands 0.315; under “UniProt Q9CQM5 (peptide sequence: LKITAVPTLLK, peptide start residue: 88)”, 0.469.
For “UniProt Q99PP2 (peptide sequence: IRPNLPIPSTVLRK, peptide start residue: 1373)”, the log2 fold change came to 0.521.
Consider “UniProt Q9CQS5 (peptide sequence: ENMQNIK, peptide start residue: 530)”, for which the log2 fold change was -0.369.
To “UniProt Q9CPQ8 (peptide sequence: APSMVAAAVTYSKPR, peptide start residue: 12)” belongs 0.221; to “UniProt Q99MU3 (peptide sequence: NQGFHIGPPLPPPHSR, peptide start residue: 103)”, -0.494.
To “UniProt Q9CPR1 (peptide sequence: LADKTDHKGELPR, peptide start residue: 156)” belongs -0.286; to “UniProt Q9CQV6 (peptide sequence: FLVPDHVNMSELIK, peptide start residue: 52)”, 0.0836.
Under “UniProt Q99LN9 (peptide sequence: TTESPMVR, peptide start residue: 233)” stands -0.194; under “UniProt Q99P30 (peptide sequence: EPGEVCFPGGKRDPVDTDDTATALR, peptide start residue: 67)”, -0.336; under “UniProt Q9CPP6 (peptide sequence: KYTEQITNEKLDMVK, peptide start residue: 46)”, 0.255.
For the target “UniProt Q99LJ6 (peptide sequence: TYSVSFPMFSK, peptide start residue: 106)”, the log2 fold change was found to be 0.294.
For “UniProt Q9CPW2 (peptide sequence: DVVNVVFVDR, peptide start residue: 57)”, the log2 fold change amounted to 0.17.
To “UniProt Q9CQN1 (peptide sequence: SLYSEKEVFIR, peptide start residue: 106)” belongs -0.221; to “UniProt Q9CQX0 (peptide sequence: CDILSILR, peptide start residue: 13)”, -0.396.
Under “UniProt Q9CQ92 (peptide sequence: KFQSEQAAGSVSK, peptide start residue: 20)” stands 0.286; under “UniProt Q9CQ45 (peptide sequence: MSLDPADLTHDTTGLTAK, peptide start residue: 102)”, -0.223; under “UniProt Q99NH2 (peptide sequence: SLPRDPSSWSNQFQR, peptide start residue: 201)”, -0.468.
For “UniProt Q99N80 (peptide sequence: ASLEDPWQLK, peptide start residue: 68)”, the log2 fold change was -0.079.
To “UniProt Q99LL5 (peptide sequence: GLSVSGPCGSR, peptide start residue: 482)” belongs -0.175.
To “UniProt Q9CQ65 (peptide sequence: YVDTPFGKPSDALILGK, peptide start residue: 33)” belongs -0.855.
With “UniProt Q9CQF0 (peptide sequence: IFIKPDRTFELK, peptide start residue: 70)”, the log2 fold change came out at 0.369.
To “UniProt Q99NA2 (peptide sequence: KRPGEATAASTEIK, peptide start residue: 213)” belongs 0.499.
Under “UniProt Q9CR55 (peptide sequence: EKINSTVNKDLENR, peptide start residue: 71)” stands -0.794; under “UniProt Q99PQ1 (peptide sequence: TYWENQIQK, peptide start residue: 169)”, -0.359; under “UniProt Q9CPU0 (peptide sequence: GFGHIGIAVPDVYSACK, peptide start residue: 124)”, 0.134.
Regarding “UniProt Q99LJ7 (peptide sequence: LCQQTIK, peptide start residue: 478)”, the log2 fold change was -0.142.
Regarding “UniProt Q9CPV5 (peptide sequence: NQELADAVLAGR, peptide start residue: 156)”, the log2 fold change was determined as 0.272.
Under “UniProt Q99PU8 (peptide sequence: VSHELGPSLR, peptide start residue: 526)” stands 0.343.
Under “UniProt Q99ME9 (peptide sequence: LPTIDPNTR, peptide start residue: 161)” stands 0.446; under “UniProt Q9CQ56 (peptide sequence: CESMAAEKR, peptide start residue: 28)”, 0.553.
